The list does not hold the whole screen: it is rich in T/C values a quarter to a half above the control, in often repeated tests (any T/C) and in doses without a T/C. Further doses and runs are listed elsewhere. T/C gives the treated animals as a percentage of the vehicle group. Some entries give survivors of the animals treated and no T/C: the source holds a T/C of zero for them, seemingly a mark for toxic or unscored doses. Some doses without a T/C left all or most animals alive at the check, yet need not have been tolerated: the source hardly ever lists a survival T/C far under the control, and the zero likely stands for such cases as well. Survivors were counted at the toxicity check, usually on the fifth day, unless a day is given; later deaths do not show. Schedule codes are those of the source, taken here to give the interval after Q, in days (D) or hours (H), and the number of doses after X. Some entries hold several experiments; their values stand side by side, smallest first. Where survival is the endpoint, the PubChem record calls one and a half times the control and up active, and a quarter to a half above the control has no call in these data; cut-offs in other NCI protocols can differ.
System: B6C3F1 mice, B16 melanoma ip, median survival T/C
Experiment: NCI In Vivo Anticancer Drug Screen. Data for tumor model B16 Melanoma (intraperitoneal) in B6C3F1 mice
Conditions: T/C endpoint: median survival time, schedule: Q01DX009 (ip), higher T/C = longer survival
In short: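 Values are T/C ratios: the measurement in treated animals divided by that in vehicle-treated controls, using survival or tumor size in mice carrying transplantable tumors.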

## Cc1cc(NCCCN(C)C)c2ccc3c(ccc4c(NCCCN(C)C)cc(C)nc43)c2n1
dose: 6.25 mg/kg/injection, vehicle: saline
  survivor count: 5 of 10 and 9 of 10
dose: 12.5 mg/kg/injection, vehicle: saline
  survivor count: 0 of 10
dose: 25.0 mg/kg/injection, vehicle: saline
  survivor count: 0 of 10
dose: 50.0 mg/kg/injection, vehicle: saline
  survivor count: 0 of 10
dose: 100.0 mg/kg/injection, vehicle: saline
  survivor count: 0 of 10

## C=C1C(=O)OC2/C=C(\CO)CC/C=C(\CO)CC(OC(=O)C(C)C)C12 (stereo not given)
dose: 7.5 mg/kg/injection, vehicle: Klucel (hydroxypropylcellulose) (HPC)
  survivor count: 7 of 7
dose: 15.0 mg/kg/injection, vehicle: Klucel (hydroxypropylcellulose) (HPC)
  survivor count: 7 of 7
dose: 30.0 mg/kg/injection, vehicle: Klucel (hydroxypropylcellulose) (HPC)
  survivor count: 6 of 7

## OCC1OC(n2cnc3c2NC=NC[C@H]3O)CC1O (stereo not given in full)
dose: 0.5 mg/kg/injection, vehicle: saline
  survivor count: 10 of 10
dose: 1.0 mg/kg/injection, vehicle: saline
  survivor count: 10 of 10
dose: 2.0 mg/kg/injection, vehicle: saline
  survivor count: 10 of 10
dose: 4.0 mg/kg/injection, vehicle: saline
  survivor count: 10 of 10
dose: 8.0 mg/kg/injection, vehicle: saline
  survivor count: 10 of 10
dose: 16.0 mg/kg/injection, vehicle: saline
  survivor count: 10 of 10

## OC(CN1CCCC2CCCCC21)c1cc2ccccc2c2ccccc12 (stereo not given)
dose: 200.0 mg/kg/injection, vehicle: saline with Tween-80
  survivor count: 7 of 7
dose: 400.0 mg/kg/injection, vehicle: saline with Tween-80
  survivor count: 0 of 7

## C[As](C)SCCC(N)C(=O)NC(CCS[As](C)C)C(=O)O (stereo not given)
dose: 100.0 mg/kg/injection, vehicle: Klucel (hydroxypropylcellulose) (HPC)
  survivor count: 10 of 10
dose: 200.0 mg/kg/injection, vehicle: Klucel (hydroxypropylcellulose) (HPC)
  survivor count: 10 of 10

## CCCCCCCCCCCCCCCCCC(=O)OCC(=O)OCC(=O)[C@]1(O)Cc2c(O)c3c(c(O)c2[C@@H](OC2CC(N)C(O)C(C)O2)C1)C(=O)c1c(OC)cccc1C3=O (stereo not given in full)
dose: 0.37 mg/kg/injection, vehicle: saline
  T/C: 142 % of control
dose: 12.0 mg/kg/injection, vehicle: saline
  survivor count: 10 of 10
